# Assay results reported in patent US11419868B2, “Low dose product and method for treating diarrhea” (MAREGADE RX, LLC, priority 2016, dated 2022).
# Test system: stress-induced visceral hypersensitivity
# Experiment: Chronic water avoidance stress (WAS) model, visceromotor response to colorectal distension
# Conditions: oral, twice daily, alone or in combination
row,SMILES,effect on fecal output during water avoidance stress
1,O=C(O)COCCN1CCN(C(c2ccccc2)c2ccc(Cl)cc2)CC1 (centres unmarked) [cetirizine],had no effects on fecal output
2,NC(N)=Nc1nc(CSCCC(N)=NS(N)(=O)=O)cs1 [famotidine],had no effects on fecal output
